# In the supplement of paper PMC12873370:
# “And” between values parts separate entries of the source, which are not always exact repeats. Identical values can stand only once. This is one part of the list. Most values come without repeats; read them as rough.
# Key:
# [1] = test system: MEPP (mouse ovarian epithelium Trp53/Pten KO); assay: cell viability relative to untreated (fraction); higher = less growth inhibition; conditions: 5 µM; 3 days
# [2] = test system: PREPP (mouse prostate epithelium Trp53/Pten KO); assay: as above; conditions: 5 µM; 3 days
Structure (SMILES),cell viability [1],cell viability [2]
C1CNCCNCCNCCN1,0.77,0.773
Cc1ccc2c(Cl)cc(Cl)c(O)c2n1,0.902,0.889
C/C(=C\CNc1ncnc2nc[nH]c12)CO,0.977,0.746
O=C(O)C(=O)O,1.01,0.931
O=C1C[C@@H](c2ccc(O)c(O)c2)Oc2cc(O)cc(O)c21,0.93,0.907
Nc1ncnc2c1c(I)cn2[C@@H]1O[C@H](CO)[C@@H](O)[C@H]1O,0.604,0.668
CC(=O)O[C@@]12CO[C@@H]1C[C@H](O)[C@@]1(C)C(=O)[C@H](O)C3=C(C)[C@@H](OC(=O)[C@H](O)[C@@H](NC(=O)OC(C)(C)C)c4ccccc4)C[C@@](O)([C@@H](OC(=O)c4ccccc4)[C@H]21)C3(C)C,0.64 and 0.88,0.677 and 0.742
NCC(=O)NCC(=O)O,0.9,0.839
CC(=O)NC(CCCN)C(=O)O (stereo unspecified),1.04,1.07
COc1ccccc1OCC(O)CN1CCN(CC(=O)Nc2c(C)cccc2C)CC1 (stereo unspecified),1.17,1.13
O=c1cc(-c2ccccc2)oc2c(O)c(O)ccc12,0.993,0.967
CCN(CC)C(=O)c1cccc(C)c1,0.904,0.816
Cc1ncc(COP(=O)(O)O)c(C=O)c1O,0.813 and 0.943,0.991 and 0.865
Nc1nc(=O)[nH]cc1F,1.05,0.882
C/C1=C2N=C(/C=C3N=C(/C(C)=C4\[N-]C(C(CC(N)=O)C4(C)CCC(=O)NCC(C)OP(=O)([O-])OC4C(CO)OC(n5cnc6cc(C)c(C)cc65)C4O)C4(C)N=C1C(CCC(N)=O)C4(C)CC(N)=O)C(CCC(N)=O)C\3(C)C)C(CCC(N)=O)C/2(C)CC(N)=O.[CH3-].[Co+3] (stereo unspecified),0.559,0.74
O=C1C[C@@H]2[C@@H](CO)[C@H](O)C[C@@H]2O1,0.912,0.914
CC(C)=CCC/C(C)=C/CC/C(C)=C/CC/C(C)=C/CC1=C(C)C(=O)c2ccccc2C1=O,1.12,0.852
CC(=O)O[C@@H]1CC[C@@]2(C)C(CC[C@]3(C)C2C(=O)C=C2C4[C@@H](C)[C@H](C)CC[C@]4(C)CC[C@]23C)[C@@]1(C)C(=O)O (stereo partly specified),0.816,0.872
C=C(C)C1CCC2(C)CCC(=O)C(C)=C2C1 (stereo unspecified),1.16,1.09

Structure (SMILES),cell viability [1],cell viability [2]
O=C(O)c1ccc(CO)o1,0.782,0.834
CN(C)c1ncnc2nc[nH]c12,1.05,0.938
CC(C)CC(=O)O,1.34,0.746
Cc1ccn[nH]1,0.956,1.11
CC1(C)CC[C@]2(C(=O)O[C@@H]3O[C@H](CO[C@@H]4O[C@H](CO)[C@@H](O)[C@H](O)[C@H]4O)[C@@H](O)[C@H](O)[C@H]3O)CC[C@]3(C)C(=CC[C@@H]4[C@@]5(C)CC[C@H](O[C@@H]6OC[C@H](O)[C@H](O)[C@H]6O)[C@@](C)(CO)[C@@H]5CC[C@]43C)[C@@H]2C1,1.4,1.01
COc1c2ccoc2cc2oc(=O)ccc12,1.26,0.836
C[C@@H](CCC(=O)O)CC(=O)O,0.974,0.94
CCCCCCCCCCCO,0.839,0.836
O=C(/C=C/c1ccc(O)c(O)c1)OC1[C@H](O)CC(O)(C(=O)O)C[C@H]1O (stereo partly specified),0.863,0.835
O=C(O)c1ccccc1O,1.01,0.983
C/C=C/C#CC#C[C@@H](O)[C@@H](/C=C/CCCO)O[C@@H]1O[C@H](CO)[C@@H](O)[C@H](O)[C@H]1O,1.1,1.13
CCNC(=O)CC[C@H](N)C(=O)O,0.86,1
NC(N)=NCCCC(N)C(=O)O (stereo unspecified),0.957,0.976
CC(C)=CCC[C@](C)(O[C@@H]1O[C@H](CO)[C@@H](O)[C@H](O)[C@H]1O)[C@H]1CC[C@]2(C)[C@@H]1[C@H](O)C[C@@H]1[C@@]3(C)CC[C@H](O)C(C)(C)[C@@H]3[C@@H](O[C@@H]3O[C@H](CO)[C@@H](O)[C@H](O)[C@H]3O[C@@H]3O[C@@H](C)[C@H](O)[C@@H](O)[C@H]3O)C[C@]12C,0.995,1.11
CN(C)CCn1nnnc1SCC1=C(C(=O)O)N2C(=O)[C@@H](NC(=O)Cc3csc(N)n3)[C@H]2SC1,1.17,1.01
Cc1ncc([N+](=O)[O-])n1CCO,0.962,1.01
O=C(O)c1ccc(C(=O)O)o1,0.967,0.908
COc1cc2c(c(OC)c1OC)-c1c(cc(OC)c(OC)c1OC)CC(C)C(C)C2 (stereo unspecified),1.51,0.911
C[C@H]1COc2c(C3(N)CC3)c(F)cc3c(=O)c(C(=O)O)cn1c23,0.902,0.941
